This assay has as its target Ad5 hexon, in the virion (human adenovirus 5) (UniProt P04133). Briefly: co-IP; both purified.

The chains behind the UniProt entries cited, without tags or fusion partners.
UniProt P04133: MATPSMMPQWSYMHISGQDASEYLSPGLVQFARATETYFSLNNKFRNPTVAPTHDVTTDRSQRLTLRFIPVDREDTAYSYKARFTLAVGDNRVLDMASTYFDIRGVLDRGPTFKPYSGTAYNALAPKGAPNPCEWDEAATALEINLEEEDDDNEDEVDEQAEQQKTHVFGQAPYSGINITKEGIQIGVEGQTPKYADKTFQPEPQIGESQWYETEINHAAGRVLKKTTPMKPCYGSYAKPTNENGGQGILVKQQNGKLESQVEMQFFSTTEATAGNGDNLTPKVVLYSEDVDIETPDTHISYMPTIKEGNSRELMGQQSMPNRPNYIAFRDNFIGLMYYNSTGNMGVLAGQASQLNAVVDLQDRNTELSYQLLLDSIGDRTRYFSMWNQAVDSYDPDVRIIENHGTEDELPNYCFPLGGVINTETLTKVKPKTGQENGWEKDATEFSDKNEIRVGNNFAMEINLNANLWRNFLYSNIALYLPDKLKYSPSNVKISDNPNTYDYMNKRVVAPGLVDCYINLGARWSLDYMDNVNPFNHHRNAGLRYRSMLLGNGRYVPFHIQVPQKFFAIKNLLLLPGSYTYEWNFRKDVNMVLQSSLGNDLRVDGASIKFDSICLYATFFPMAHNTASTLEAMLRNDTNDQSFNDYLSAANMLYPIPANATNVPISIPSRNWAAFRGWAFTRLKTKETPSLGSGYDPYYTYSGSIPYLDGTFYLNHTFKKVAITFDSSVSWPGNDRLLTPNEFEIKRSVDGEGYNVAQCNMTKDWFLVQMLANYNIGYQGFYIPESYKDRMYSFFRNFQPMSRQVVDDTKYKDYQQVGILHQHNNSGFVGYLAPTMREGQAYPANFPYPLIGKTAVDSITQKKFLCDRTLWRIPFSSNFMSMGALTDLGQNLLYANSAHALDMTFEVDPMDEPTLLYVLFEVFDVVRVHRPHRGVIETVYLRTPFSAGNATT
UniProt P12538: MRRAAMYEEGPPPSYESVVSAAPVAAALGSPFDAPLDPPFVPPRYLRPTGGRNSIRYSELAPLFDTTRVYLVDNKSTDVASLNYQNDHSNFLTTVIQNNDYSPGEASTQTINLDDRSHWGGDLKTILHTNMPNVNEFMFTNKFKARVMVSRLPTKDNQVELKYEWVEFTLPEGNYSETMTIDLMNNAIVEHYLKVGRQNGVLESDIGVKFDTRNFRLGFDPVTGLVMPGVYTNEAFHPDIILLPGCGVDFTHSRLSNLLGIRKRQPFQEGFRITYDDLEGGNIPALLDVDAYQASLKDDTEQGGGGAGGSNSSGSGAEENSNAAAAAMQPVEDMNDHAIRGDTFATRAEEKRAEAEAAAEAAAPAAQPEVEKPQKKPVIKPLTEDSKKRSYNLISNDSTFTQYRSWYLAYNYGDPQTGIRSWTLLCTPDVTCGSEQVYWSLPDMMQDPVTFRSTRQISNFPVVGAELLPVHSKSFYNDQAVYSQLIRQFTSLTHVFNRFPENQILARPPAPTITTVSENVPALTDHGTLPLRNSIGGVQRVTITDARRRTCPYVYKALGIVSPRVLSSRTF

These are yes or no findings as the source states them, for the method shown.

In the case of “Ad5 penton base (from UniProt P12538 1-571)”, the binding result was “no binding (condition: after heating Ad5 to 49°C)”.

These data come from paper PMC6461443.
